We go through five molecules from article PMC6113304.

Chains of the proteins cited; added tags and fusions are not shown. Lines headed by an entry give the natural chain unless they say otherwise; changes in a name come on top.
UniProt P40763: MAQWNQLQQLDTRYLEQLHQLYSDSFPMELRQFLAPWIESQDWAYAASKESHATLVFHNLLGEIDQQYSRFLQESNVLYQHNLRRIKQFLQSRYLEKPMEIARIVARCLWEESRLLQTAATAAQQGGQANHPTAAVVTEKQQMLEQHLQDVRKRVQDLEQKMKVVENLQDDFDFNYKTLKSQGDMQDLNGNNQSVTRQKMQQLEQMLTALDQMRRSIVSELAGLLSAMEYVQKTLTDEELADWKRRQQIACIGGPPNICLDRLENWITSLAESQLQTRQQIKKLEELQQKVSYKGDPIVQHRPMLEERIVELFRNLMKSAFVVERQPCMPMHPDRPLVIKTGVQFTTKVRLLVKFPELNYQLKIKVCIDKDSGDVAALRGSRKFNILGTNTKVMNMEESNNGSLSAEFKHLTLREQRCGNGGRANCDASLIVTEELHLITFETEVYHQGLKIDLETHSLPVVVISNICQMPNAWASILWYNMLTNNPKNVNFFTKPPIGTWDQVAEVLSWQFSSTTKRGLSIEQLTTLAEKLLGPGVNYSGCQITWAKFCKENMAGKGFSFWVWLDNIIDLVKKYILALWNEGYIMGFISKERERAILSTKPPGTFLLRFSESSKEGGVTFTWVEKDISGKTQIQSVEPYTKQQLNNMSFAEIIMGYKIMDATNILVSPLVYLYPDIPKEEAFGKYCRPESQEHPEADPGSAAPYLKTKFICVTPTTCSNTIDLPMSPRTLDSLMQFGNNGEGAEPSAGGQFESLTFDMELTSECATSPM
UniProt O60674: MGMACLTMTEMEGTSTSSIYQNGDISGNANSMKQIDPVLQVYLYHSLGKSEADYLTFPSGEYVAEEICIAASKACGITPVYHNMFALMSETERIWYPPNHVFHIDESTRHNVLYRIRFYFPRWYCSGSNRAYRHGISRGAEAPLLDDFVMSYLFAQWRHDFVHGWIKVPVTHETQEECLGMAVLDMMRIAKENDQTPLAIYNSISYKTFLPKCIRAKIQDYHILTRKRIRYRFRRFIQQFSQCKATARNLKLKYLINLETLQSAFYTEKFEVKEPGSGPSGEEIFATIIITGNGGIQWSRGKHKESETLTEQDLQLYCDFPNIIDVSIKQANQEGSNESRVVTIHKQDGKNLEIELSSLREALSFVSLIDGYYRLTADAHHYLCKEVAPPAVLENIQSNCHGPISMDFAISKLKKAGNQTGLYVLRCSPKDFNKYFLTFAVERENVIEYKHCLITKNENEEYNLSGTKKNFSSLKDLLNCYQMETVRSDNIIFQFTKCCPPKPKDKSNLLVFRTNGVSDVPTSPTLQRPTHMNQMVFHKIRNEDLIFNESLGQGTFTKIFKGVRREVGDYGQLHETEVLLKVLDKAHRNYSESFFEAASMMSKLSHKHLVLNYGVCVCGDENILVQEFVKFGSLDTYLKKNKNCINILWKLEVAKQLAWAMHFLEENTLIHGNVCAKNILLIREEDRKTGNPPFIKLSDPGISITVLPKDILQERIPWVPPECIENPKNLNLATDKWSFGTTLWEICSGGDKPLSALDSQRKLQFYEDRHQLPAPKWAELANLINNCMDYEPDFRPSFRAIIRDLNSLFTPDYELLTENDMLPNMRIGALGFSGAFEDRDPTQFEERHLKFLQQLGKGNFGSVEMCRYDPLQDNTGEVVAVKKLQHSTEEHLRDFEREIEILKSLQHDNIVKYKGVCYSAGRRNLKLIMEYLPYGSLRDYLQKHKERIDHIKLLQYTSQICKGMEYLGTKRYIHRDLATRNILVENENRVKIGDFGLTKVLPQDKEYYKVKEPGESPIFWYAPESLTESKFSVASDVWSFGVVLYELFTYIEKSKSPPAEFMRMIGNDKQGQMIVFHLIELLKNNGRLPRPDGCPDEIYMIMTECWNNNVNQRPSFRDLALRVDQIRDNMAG
UniProt P42224: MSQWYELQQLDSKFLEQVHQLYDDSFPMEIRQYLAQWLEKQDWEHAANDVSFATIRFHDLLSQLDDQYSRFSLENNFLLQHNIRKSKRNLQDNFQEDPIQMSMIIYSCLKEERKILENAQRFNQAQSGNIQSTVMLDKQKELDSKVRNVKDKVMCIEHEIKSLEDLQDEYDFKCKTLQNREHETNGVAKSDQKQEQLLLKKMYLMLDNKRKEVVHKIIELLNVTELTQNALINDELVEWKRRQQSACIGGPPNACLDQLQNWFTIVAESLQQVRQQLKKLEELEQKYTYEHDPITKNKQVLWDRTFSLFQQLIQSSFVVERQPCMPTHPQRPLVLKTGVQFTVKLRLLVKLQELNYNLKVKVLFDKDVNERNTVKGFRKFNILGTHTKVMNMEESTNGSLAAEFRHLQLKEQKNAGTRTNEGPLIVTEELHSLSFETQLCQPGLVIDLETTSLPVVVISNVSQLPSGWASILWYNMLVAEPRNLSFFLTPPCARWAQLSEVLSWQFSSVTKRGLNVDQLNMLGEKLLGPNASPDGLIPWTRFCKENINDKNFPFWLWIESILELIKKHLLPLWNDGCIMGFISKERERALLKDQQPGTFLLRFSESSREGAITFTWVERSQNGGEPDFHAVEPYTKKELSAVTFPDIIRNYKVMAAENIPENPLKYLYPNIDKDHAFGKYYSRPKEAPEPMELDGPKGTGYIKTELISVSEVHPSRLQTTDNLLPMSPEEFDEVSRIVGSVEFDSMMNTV

Residue numbers refer to the chain shown, from its start. Numbers in names are those of the source. No constants are given. Whether binding was seen depends on the method and setting. In cells and extracts the contact can be indirect. Some binding calls cover weakened binding; strength is not graded here. For some assays here: Where a sequence is shown, tags or fusion partners need not be part of it.

Experiment [1] addresses Flag-tagged full-length STAT3 (UniProt P40763). The experiment in a line: co-IP; 293T cells transfected with tagged proteins (Myc-Wwox, Flag-STAT3, HA-JAK2); whole-cell lysates in IP lysis buffer (Pierce); IP with anti-Myc, anti-Flag M2 or anti-HA antibody overnight at 4 °C, Protein G Sepharose, washed three times with PBS; in one panel cells treated with IL-6 for the indicated time spans.

In experiment [2] the target is HA-tagged full-length JAK2 (UniProt O60674). The description is as above.
In another experiment the target is HA-STAT1 (UniProt P42224). The experiment in a line: co-IP; co-IP / IP experiments of the supplementary figures with proteins expressed from plasmids; cells, tags and antibodies not shown.
The target of experiment [3] is Flag-tagged full-length STAT3 (UniProt P40763). The experiment is described as above.
Another experiment addresses STAT3-Y705F (UniProt P40763). Described as above.
Experiment [4] deals with HA-tagged full-length JAK2 (UniProt O60674). The description is as above.
Experiment [5] has as its target endogenous STAT3 (human (endogenous in MCF-10A, MCF-7, T47D)) (UniProt P40763). The experiment in a line: co-IP; endogenous proteins; lysates of MCF-10A, MCF-7 and T47D cells; IP with anti-STAT3 or anti-JAK2 antibodies; in one panel MCF-7 cells transfected with Wwox siRNA and stimulated with IL-6.
For experiment [6], the target named is endogenous JAK2 (human (endogenous in MCF-10A, T47D, MCF-7)) (UniProt O60674). The description is as above.

B1: Myc-tagged full-length Wwox (WW domain-containing oxidoreductase) (protein, UniProt Q9NZC7 1-414)
chain: MAALRYAGLDDTDSEDELPPGWEERTTKDGWVYYANHTEEKTQWEHPKTGKRKRVAGDLPYGWEQETDENGQVFFVDHINKRTTYLDPRLAFTVDDNPTKPTTRQRYDGSTTAMEILQGRDFTGKVVVVTGANSGIGFETAKSFALHGAHVILACRNMARASEAVSRILEEWHKAKVEAMTLDLALLRSVQHFAEAFKAKNVPLHVLVCNAATFALPWSLTKDGLETTFQVNHLGHFYLVQLLQDVLCRSAPARVIVVSSESHRFTDINDSLGKLDFSRLSPTKNDYWAMLAYNRSKLCNILFSNELHRRLSPRGVTSNAVHPGNMMYSNIHRSWWVYTLLFTLARPFTKSMQQGAATTVYCAAVPELEGLGGMYFNNCCRCMPSPEAQSEETARTLWALSERLIQERLGSQSG
As to B1, the binding result (in experiment [1]; in experiment [2]; in the experiment with HA-STAT1; in experiment [3]; with STAT3-Y705F; in experiment [4]) was “binds” in each case.

B2: Wwox S14A (protein, UniProt Q9NZC7 1-414)
chain: B1 chain with S14A
In the case of B2, the binding entry in experiment [4] was “binds”.

B3: Wwox-Y33R (protein, UniProt Q9NZC7 1-414)
chain: B1 chain with Y33R
Take B3: in experiment [3], the binding entry is listed as “binds”.

B4: Wwox T49A (protein, UniProt Q9NZC7 1-414)
chain: B1 chain with T49A
For B4, the binding result in experiment [4] is given as “binds”.

B5: endogenous Wwox (protein, UniProt Q9NZC7 1-414)
chain: B1 chain
For the molecule B5, the binding result in experiment [5] and in experiment [6] was “binds” throughout.
